Measurements reported in the supplement of paper PMC10849652.
The list shows a part of the results.

The chains behind the UniProt entries cited, without tags or fusion partners. Where a name states a change or a piece, a line headed by the entry shows the natural chain unless it says otherwise.
UniProt Q8WWW0: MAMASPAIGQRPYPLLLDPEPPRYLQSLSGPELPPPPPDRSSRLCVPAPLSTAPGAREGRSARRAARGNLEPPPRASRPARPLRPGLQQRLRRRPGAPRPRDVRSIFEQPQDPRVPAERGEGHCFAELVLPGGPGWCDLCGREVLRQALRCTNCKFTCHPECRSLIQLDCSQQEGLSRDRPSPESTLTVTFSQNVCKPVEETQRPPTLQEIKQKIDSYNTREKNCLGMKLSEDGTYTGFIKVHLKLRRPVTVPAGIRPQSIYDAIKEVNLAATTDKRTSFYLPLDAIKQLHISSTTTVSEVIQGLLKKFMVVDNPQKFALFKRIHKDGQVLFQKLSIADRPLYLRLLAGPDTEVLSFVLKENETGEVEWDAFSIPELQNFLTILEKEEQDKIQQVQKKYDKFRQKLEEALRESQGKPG
UniProt Q96EV2: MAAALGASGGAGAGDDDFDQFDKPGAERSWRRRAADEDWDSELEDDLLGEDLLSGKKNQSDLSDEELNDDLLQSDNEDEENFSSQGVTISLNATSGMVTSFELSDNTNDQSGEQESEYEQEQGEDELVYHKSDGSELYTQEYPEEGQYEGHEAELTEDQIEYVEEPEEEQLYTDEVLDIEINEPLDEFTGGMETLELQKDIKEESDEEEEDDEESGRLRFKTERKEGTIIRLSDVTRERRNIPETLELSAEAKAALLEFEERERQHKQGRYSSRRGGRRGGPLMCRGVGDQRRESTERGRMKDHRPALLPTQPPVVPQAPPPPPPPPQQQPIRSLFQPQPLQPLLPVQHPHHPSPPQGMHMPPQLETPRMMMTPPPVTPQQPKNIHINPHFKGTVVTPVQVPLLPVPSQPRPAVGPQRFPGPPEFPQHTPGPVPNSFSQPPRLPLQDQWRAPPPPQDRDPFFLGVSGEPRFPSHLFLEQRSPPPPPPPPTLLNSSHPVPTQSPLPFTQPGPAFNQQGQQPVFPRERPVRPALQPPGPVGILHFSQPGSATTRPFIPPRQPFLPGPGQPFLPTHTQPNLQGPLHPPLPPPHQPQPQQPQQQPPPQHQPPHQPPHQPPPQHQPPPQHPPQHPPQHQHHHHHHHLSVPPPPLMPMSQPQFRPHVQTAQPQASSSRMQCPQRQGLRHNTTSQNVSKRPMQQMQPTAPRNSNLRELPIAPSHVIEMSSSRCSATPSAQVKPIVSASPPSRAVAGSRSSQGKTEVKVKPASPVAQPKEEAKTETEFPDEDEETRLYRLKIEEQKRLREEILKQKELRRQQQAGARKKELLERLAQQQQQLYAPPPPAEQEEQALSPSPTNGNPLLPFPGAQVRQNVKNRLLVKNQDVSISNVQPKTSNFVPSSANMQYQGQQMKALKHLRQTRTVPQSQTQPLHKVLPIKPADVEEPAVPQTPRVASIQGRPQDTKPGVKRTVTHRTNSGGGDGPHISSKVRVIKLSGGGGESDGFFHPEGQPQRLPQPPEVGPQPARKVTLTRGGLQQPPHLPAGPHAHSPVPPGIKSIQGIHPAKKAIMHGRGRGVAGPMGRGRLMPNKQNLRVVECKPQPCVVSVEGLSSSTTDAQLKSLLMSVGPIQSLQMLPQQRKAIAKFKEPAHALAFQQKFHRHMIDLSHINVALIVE
UniProt O75884: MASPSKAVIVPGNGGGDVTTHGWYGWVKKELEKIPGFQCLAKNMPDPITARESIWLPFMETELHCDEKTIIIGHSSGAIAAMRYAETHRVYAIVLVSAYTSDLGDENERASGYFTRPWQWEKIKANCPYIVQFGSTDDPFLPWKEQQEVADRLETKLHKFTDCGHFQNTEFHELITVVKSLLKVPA
UniProt P35250, whole entry, looked up: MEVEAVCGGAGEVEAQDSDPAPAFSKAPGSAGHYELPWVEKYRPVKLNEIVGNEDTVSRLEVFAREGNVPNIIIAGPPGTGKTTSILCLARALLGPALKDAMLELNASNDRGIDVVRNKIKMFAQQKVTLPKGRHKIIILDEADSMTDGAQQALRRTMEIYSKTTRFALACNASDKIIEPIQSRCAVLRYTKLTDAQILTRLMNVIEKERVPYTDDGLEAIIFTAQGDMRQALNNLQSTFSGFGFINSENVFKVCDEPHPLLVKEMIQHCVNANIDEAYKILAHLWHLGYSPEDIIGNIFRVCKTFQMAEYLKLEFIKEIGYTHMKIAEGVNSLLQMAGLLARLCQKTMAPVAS
UniProt Q969G6: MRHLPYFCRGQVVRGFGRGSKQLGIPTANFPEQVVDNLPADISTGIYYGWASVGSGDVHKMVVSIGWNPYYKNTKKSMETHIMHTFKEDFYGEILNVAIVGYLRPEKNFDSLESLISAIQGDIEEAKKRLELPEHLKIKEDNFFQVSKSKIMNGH
UniProt P78509: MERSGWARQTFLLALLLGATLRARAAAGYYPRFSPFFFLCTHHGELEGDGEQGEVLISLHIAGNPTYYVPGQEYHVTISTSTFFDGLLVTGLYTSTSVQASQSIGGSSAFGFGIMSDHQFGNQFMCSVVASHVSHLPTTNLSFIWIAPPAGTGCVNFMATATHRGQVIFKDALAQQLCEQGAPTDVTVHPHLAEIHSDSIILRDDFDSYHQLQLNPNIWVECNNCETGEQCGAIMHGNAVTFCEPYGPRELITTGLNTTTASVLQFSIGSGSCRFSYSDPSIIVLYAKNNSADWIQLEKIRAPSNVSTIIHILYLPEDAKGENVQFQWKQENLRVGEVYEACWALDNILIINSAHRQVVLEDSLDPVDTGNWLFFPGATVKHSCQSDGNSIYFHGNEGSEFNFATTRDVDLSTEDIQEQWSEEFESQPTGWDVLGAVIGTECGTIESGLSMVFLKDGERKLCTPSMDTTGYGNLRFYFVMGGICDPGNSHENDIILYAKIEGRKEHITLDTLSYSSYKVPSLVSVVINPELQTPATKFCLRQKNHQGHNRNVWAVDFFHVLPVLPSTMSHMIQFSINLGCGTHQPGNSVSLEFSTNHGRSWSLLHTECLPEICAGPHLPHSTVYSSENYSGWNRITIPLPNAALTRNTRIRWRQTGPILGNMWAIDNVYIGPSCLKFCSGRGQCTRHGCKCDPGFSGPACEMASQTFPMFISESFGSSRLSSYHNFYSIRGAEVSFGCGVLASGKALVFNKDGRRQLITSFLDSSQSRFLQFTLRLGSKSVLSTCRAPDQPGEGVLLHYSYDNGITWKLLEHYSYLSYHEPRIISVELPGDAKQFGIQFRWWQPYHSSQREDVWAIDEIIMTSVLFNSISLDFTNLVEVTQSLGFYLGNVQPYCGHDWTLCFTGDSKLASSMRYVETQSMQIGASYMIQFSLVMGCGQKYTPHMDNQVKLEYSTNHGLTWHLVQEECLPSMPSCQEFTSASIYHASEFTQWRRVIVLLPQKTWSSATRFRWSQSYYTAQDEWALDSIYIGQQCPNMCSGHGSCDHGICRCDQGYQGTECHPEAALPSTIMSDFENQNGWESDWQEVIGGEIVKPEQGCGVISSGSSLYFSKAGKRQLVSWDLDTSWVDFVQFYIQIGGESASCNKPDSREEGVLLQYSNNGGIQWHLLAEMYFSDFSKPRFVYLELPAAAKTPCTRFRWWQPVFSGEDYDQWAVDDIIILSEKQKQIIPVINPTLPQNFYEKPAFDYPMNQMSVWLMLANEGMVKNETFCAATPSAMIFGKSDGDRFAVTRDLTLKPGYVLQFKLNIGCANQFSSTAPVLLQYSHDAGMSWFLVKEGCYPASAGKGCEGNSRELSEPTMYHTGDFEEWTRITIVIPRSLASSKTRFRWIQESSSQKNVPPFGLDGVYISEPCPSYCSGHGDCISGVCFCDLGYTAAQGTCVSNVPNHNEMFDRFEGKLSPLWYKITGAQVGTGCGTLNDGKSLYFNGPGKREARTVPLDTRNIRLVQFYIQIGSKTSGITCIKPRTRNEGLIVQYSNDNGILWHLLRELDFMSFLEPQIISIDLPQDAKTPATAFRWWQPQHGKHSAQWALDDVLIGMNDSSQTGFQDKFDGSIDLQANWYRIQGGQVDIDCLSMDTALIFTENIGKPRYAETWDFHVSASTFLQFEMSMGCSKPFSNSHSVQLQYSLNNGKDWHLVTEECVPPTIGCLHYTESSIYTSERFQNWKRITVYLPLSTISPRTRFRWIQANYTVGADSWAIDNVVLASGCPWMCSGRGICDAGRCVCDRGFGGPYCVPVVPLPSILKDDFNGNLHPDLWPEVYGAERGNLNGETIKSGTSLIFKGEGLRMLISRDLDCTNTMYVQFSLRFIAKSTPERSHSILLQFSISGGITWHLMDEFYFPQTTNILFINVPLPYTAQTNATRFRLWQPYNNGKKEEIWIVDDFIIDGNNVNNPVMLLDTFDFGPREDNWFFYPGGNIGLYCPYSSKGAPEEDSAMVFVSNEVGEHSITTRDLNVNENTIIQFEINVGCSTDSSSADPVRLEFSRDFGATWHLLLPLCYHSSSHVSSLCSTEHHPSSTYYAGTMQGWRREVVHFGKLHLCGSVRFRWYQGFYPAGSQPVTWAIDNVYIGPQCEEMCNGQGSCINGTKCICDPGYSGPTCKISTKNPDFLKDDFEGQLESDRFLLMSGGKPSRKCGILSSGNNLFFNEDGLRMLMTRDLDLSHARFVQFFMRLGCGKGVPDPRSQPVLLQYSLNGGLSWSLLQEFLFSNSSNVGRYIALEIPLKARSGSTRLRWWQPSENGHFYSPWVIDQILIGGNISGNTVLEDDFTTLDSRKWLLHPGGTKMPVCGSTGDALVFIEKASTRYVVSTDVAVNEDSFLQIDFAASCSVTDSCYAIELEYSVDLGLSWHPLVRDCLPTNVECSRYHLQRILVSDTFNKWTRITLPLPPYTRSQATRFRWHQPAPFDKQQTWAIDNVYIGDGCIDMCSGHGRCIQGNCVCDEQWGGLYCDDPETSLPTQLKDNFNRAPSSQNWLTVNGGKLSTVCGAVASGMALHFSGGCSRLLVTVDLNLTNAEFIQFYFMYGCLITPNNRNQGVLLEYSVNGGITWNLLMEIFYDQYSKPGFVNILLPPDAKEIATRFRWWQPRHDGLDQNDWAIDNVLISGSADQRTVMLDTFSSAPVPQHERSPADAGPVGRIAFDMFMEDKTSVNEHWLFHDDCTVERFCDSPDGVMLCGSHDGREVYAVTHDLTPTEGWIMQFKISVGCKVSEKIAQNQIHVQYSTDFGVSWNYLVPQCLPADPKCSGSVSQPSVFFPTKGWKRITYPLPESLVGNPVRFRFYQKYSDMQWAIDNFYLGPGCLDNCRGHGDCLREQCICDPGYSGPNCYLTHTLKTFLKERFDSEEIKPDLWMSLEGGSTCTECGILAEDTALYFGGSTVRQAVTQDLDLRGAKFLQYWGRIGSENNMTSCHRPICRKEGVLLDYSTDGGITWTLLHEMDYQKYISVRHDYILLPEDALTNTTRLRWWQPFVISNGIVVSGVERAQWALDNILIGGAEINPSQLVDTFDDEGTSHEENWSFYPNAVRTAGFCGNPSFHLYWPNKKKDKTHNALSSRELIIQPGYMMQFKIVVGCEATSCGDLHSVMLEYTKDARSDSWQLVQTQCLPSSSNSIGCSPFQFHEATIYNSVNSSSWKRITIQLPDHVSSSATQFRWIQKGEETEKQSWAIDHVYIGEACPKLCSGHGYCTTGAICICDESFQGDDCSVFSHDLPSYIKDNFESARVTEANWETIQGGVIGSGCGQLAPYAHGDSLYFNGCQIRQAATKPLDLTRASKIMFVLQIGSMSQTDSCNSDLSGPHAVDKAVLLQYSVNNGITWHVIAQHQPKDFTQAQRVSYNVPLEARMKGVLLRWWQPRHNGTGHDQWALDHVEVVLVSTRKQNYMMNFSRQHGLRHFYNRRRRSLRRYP
UniProt Q96D15: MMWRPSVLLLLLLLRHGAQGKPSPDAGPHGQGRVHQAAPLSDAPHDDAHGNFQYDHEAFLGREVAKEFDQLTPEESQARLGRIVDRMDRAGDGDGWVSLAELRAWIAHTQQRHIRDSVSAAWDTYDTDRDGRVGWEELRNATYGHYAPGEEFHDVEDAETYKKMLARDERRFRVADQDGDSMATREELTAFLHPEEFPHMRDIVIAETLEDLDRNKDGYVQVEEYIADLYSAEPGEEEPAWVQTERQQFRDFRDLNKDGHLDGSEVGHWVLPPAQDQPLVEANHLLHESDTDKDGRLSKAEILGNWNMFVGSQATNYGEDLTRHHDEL
UniProt Q8WZ73: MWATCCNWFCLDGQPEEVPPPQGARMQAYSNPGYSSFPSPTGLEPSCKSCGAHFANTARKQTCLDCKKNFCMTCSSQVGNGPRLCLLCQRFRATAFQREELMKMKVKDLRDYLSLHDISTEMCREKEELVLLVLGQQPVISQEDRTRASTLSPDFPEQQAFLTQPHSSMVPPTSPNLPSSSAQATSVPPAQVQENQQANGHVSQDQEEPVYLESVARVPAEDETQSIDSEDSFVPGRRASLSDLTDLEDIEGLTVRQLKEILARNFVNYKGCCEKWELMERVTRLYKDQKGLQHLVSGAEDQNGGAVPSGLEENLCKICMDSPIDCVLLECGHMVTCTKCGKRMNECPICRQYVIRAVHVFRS
UniProt P82980: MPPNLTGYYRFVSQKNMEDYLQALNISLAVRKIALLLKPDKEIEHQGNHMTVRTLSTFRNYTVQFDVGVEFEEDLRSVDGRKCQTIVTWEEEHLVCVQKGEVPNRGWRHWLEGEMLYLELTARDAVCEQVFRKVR

Assays:
Assay in all cases: log2 fold change, soluble protein after heating vs DMSO (PISA); higher = thermal stabilisation; K562 lysate, 10 uM; active = over 0.2 and 3.5 SD of the protein, either way, in both replicates (recomputed)
[1] = compound: NCC(=O)Nc1ccc(-n2nc(C(F)(F)F)cc2-c2ccc3c(ccc4ccccc43)c2)cc1
Procedure, shortened: (§1)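 Log-two fold change in thermal stability relative to solvent controls is reported from duplicates. For each sample, crude K562 extract from dounce-homogenised pellets in PBS pH 7.4 with 1 mM MgCl2, at 1 mg/mL protein, was treated with 10 μM compound for 30 min. Aliquots heated for 3 min across 48°C-58°C were pooled, brought to 0.5% NP-40 at 4°C and cleared at 21,000xg for 90 min. The supernatant was quantified by TMTpro 16plex LC-MS/MS with channel sums equalised.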

vorinostat = compound: O=C(CCCCCCC(=O)Nc1ccccc1)NO [vorinostat]
Procedure, shortened: as §1

silmitasertib = compound: O=C(O)c1ccc2c(c1)nc(Nc1cccc(Cl)c1)c1ccncc12 [silmitasertib]
Procedure, shortened: as §1

[2] = compound: O=C1NC(=O)C(c2cnc3ccccn23)=C1c1cn2c3c(cc(F)cc13)CN(C(=O)N1CCCCC1)CC2
Procedure, shortened: as §1

entospletinib = compound: c1cn2cc(-c3ccc4cn[nH]c4c3)nc(Nc3ccc(N4CCOCC4)cc3)c2n1 [entospletinib]
Procedure, shortened: as §1

Measured: log2 fold change

RASSF5 (UniProt Q8WWW0)
inactive: [1] 0.005 | vorinostat -0.036 | silmitasertib 0.072 | [2] -0.037 | entospletinib -0.012

RBM47
inactive: [1] -0.088 | vorinostat -0.33 | silmitasertib -0.089

RFC3 (UniProt P40938)
inactive: [1] -0.01 | silmitasertib 0.035 | [2] 0.006 | entospletinib 0.018
active: vorinostat -0.365

RBM25 (UniProt P49756)
inactive: [1] 0.067 | vorinostat -0.041 | silmitasertib 0.009 | [2] -0.018 | entospletinib -0.016

RBM34 (UniProt P42696)
inactive: [1] -0.033 | vorinostat 0.05 | silmitasertib 0.035 | [2] 0.014 | entospletinib 0.029

RBM33 (UniProt Q96EV2)
inactive: [1] -0.002 | vorinostat -0.207 | silmitasertib -0.027 | [2] -0.007 | entospletinib -0.025

RBM26 isoform 2 (UniProt Q5T8P6)
inactive: [1] -0.01 | vorinostat -0.212 | silmitasertib -0.013 | [2] -0.001 | entospletinib 0.007

RGCC (UniProt Q9H4X1)
inactive: [1] -0.017 | vorinostat 0.401 | silmitasertib 0.243

RBBP9 (UniProt O75884)
inactive: [1] 0.011 | vorinostat 0.064 | silmitasertib -0.068 | [2] 0.05

RER1 (UniProt O15258)
inactive: [1] -0.022 | vorinostat 0.107 | silmitasertib 0.003 | [2] 0.056 | entospletinib 0.002

RFC2 (UniProt P35250)
inactive: [1] -0.027 | silmitasertib 0.043 | [2] -0.017 | entospletinib 0.004
active: vorinostat -0.506

Reprinted from the entries so far (two entries):
RBBP9 (UniProt O75884)
inactive: [1] 0.011 | vorinostat 0.064 | silmitasertib -0.068 | [2] 0.05

RER1 (UniProt O15258)
inactive: [1] -0.022 | vorinostat 0.107 | silmitasertib 0.003 | [2] 0.056 | entospletinib 0.002

Following part

RBX1 (UniProt P62877)
inactive: [1] 0.107 | vorinostat -0.155 | silmitasertib 0.36 | [2] -0.152 | entospletinib 0.334

RFXAP (UniProt O00287)
inactive: [1] -0.022 | vorinostat -0.034 | silmitasertib 0.012 | [2] -0.068 | entospletinib -0.081

RFK (UniProt Q969G6)
inactive: [1] 0.013 | vorinostat -0.062 | silmitasertib -0.001 | [2] 0.002 | entospletinib 0.029

REPS1 (UniProt Q96D71)
inactive: [1] -0.017 | vorinostat 0.02 | silmitasertib -0.014 | [2] 0.001 | entospletinib -0.027

RELN (UniProt P78509)
inactive: [1] 0.016 | vorinostat 0.088 | silmitasertib -0.049 | [2] 0.006 | entospletinib -0.037

RFC5 (UniProt P40937)
inactive: [1] 0.019 | silmitasertib 0.031 | [2] 0.019 | entospletinib 0.014
active: vorinostat -0.492

RCN3 (UniProt Q96D15)
inactive: [1] -0.038 | vorinostat 0.16 | silmitasertib 0.045 | [2] 0.049 | entospletinib 0.025

RBPJ (UniProt Q06330)
inactive: [1] 0.035 | vorinostat 0.071 | silmitasertib -0.029 | [2] 0.019 | entospletinib 0.013

REEP3 (UniProt Q6NUK4)
inactive: [1] 0.02 | vorinostat 0.178 | silmitasertib 0.028 | [2] 0.01

RFFL (UniProt Q8WZ73)
inactive: [1] 0.015 | vorinostat 0.103 | silmitasertib -0.104 | [2] 0.005 | entospletinib 0.064

RB1CC1 (UniProt Q8TDY2)
inactive: [1] 0.032 | vorinostat -0.167 | silmitasertib 0.016 | [2] 0.005 | entospletinib 0.009

RDX (UniProt P35241)
inactive: [1] 0.002 | vorinostat 0.129 | silmitasertib -0.017 | [2] -0.008 | entospletinib 0.023

RBP5 (UniProt P82980)
inactive: [1] -0.086 | vorinostat 0.077 | silmitasertib -0.114 | [2] -0.023 | entospletinib -0.074

RECQL (UniProt P46063)
inactive: [1] 0.01 | vorinostat -0.074 | silmitasertib 0.002 | [2] -0.023 | entospletinib 0.011

RARS2 (UniProt Q5T160)
inactive: [1] 0 | vorinostat -0.027 | silmitasertib -0.016 | [2] -0.002 | entospletinib 0.064
